# In PubChem BioAssay AID540256 (National Center for Advancing Translational Sciences (NCATS), 2011):
# In all, about 300,000 compounds went through this assay and about 3,700 (1.2%) were called active. Inconclusive results, whose numbers are uncertain, are shown with a selection of clear calls. The call rests on the fitted dose curve; tested in HEK293 cells. Potencies beside an inconclusive call are fits to weak or partial responses and may not hold up.
# Assay: qHTS for Inhibitors of binding or entry into cells for Lassa Virus; further: nearly all actives have a fitted effect of over 50% in size
# Settings: Lassa virus pseudotype entry inhibition, cell reporter; series mostly up to 37.9 µM
# Potency means the concentration at half of the fitted maximal effect.
row,SMILES,Potency
1,CC(=O)SC1CC(=O)N(c2ccc(C(C)(C)C)cc2)C1=O (centres undefined),inactive
2,CC1(C)CC(=O)C(/C=N/n2cnc3ccccc3c2=O)=C(O)C1,inactive
3,CC(C)COc1ccc(C(=O)Nc2ccc([N+](=O)[O-])cc2)cc1,"inconclusive: 0.447 µM [activator, full curve, poor fit]"
4,CCCCOc1ccccc1NC(=O)c1scc2c1OCCO2,"inconclusive: 7.94 µM [inhibitor, partial curve, poor fit]"
5,C/C(=N\Nc1ccc(Cl)c(C(=O)O)c1)c1cccc2ccccc12,inactive
6,COc1ccc(N2CCN(c3csc4ccccc4c3=O)CC2)cc1,"inconclusive: 3.16 µM [activator, full curve, poor fit]"
7,COc1cc(/C=C/C(=O)OCC(=O)c2ccc(OC(F)F)cc2)ccc1O,"inconclusive: 8.91 µM [inhibitor, partial curve]"
8,COc1ccc(C(CNC(=O)COc2cc(C)cc(C)c2)N2CCOCC2)cc1 (centres undefined),inactive
9,O=C1c2ccccc2-c2onc3c(NCCO)cc(NC4CCCCC4)c1c23,inactive
10,CC(Sc1oc(-c2cccs2)nc1S(=O)(=O)c1ccccc1)c1ccccc1 (centres undefined),"inconclusive: 2.82 µM [inhibitor, full curve, poor fit]"
11,Cn1nccc1C(=O)NCc1ccc2c(c1)CCN2C(=O)c1ccc(Cl)cc1,"inconclusive: 1.12 µM [inhibitor, full curve, poor fit]"
12,Cc1nn(-c2ccccc2)c(C)c1/C=C/C(=O)OCC(=O)N(C)C1CCS(=O)(=O)C1 (centres undefined),"inconclusive: 6.31 µM [inhibitor, single point]"
13,CCOC(=O)c1c(NC(=O)C(=O)N/N=C/c2ccc(O)c(OC)c2)sc2c1CCCCC2,"inconclusive: 17.8 µM [inhibitor, single point]"
14,COc1ccc(/C=N/Nc2cc(C)nc3ccc(Br)cc23)cc1,"inconclusive: 4.47 µM [inhibitor, full curve, poor fit]"
15,CN1CCN(C(=O)c2cc(Cl)ccc2NC(=O)c2ccc(Cl)cc2Cl)CC1,inactive
16,COC(=O)c1ccc(CN2CCc3ccccc32)cc1,"inconclusive: 1.26 µM [inhibitor, single point]"
17,Oc1c(Cl)cccc1C=Nc1cc(C(F)(F)F)ccc1N1CCCC1,inactive
18,O=C(Cn1c(=O)n(-c2ccc(Cl)cc2)c(=O)c2c3c(sc21)CCC3)c1ccccc1,"inconclusive: 12.6 µM [inhibitor, partial curve, poor fit]"
19,Cc1ccccc1C(=O)Nc1cccc(NC(=O)Cn2cnc3c(=O)n(C)c(=O)n(C)c32)c1,"inconclusive: 20.6 µM [inhibitor, single point]"
20,CCOC(=O)c1c(NC(=O)CSc2cn(CCNC(=O)c3ccccc3F)c3ccccc23)sc2c1CCCC2,inactive
21,COc1ccc(Cl)cc1C(=O)Nc1ccc2c(c1)OCO2,inactive
22,CCC(=O)c1ccc(N2CCC(C)CC2)c(F)c1,inactive
23,Cc1cc2oc(C(=O)Nc3ccc(S(=O)(=O)N4CCCC(C)C4)cc3)cc(=O)c2cc1Cl (centres undefined),"inconclusive: 5.62 µM [inhibitor, partial curve, poor fit]"

# Structures listed so far that have two or more sulfur atoms, in the order listed:
row,SMILES,Potency
10,CC(Sc1oc(-c2cccs2)nc1S(=O)(=O)c1ccccc1)c1ccccc1 (centres undefined),"inconclusive: 2.82 µM [inhibitor, full curve, poor fit]"
20,CCOC(=O)c1c(NC(=O)CSc2cn(CCNC(=O)c3ccccc3F)c3ccccc23)sc2c1CCCC2,inactive

# (list continues)

row,SMILES,Potency
1,COc1ccc(CN(C)C(=O)c2ccc(NS(=O)(=O)c3ccccc3)cc2)c(OC)c1,"inconclusive: 22.4 µM [inhibitor, partial curve, poor fit]"
2,CC(=O)Nc1ccc(/C=N/NC(=O)c2cc3ccccc3nc2C)cc1,"inconclusive: 2.82 µM [activator, full curve, poor fit]"
3,COc1ccc(C(=O)NNC(=S)NC(=O)c2cccs2)cc1,"inconclusive: 8.91 µM [inhibitor, partial curve, poor fit]"
4,CCOC(=O)Oc1ccc2oc(C)c(C(=O)OCCOC)c2c1,"inconclusive: 9.2 µM [activator, partial curve]"
5,COc1ccc(/C=N/NC(=S)Nc2ccccc2)cc1COc1ccc(F)cc1F,active: 1.64 µM
6,CC(=O)c1c(C)[nH]c(C(=O)NC2CCCCC2)c1C,"inconclusive: 11.2 µM [activator, single point]"
7,c1cnc2ccc(C(c3nnnn3C3CCCC3)N3CCN(c4nc5ccccc5s4)CC3)cc2c1 (centres undefined),inactive
8,O=C(NC1CCCC1)c1ccc([N+](=O)[O-])s1,inactive
9,COc1cc(NS(=O)(=O)c2ccc3ccccc3c2)c2ncccc2c1,"inconclusive: 7.94 µM [inhibitor, partial curve, poor fit]"
10,CC(C)(C)c1cc(CCC(=O)NNC(=S)NC(=O)c2ccccc2)cc(C(C)(C)C)c1O,"inconclusive: 8.2 µM [inhibitor, single point]"
11,Nn1c(SCc2cccc(Cl)c2)nnc1-c1ccncc1,inactive
12,Cc1csc(NC(=O)CSc2nnc(CCNC(=O)c3ccc(Cl)c(Cl)c3)n2C)n1,inactive
13,N#Cc1ccc(NC(=O)C2CC(c3ccc(F)cc3)=NO2)cc1 (centres undefined),inactive
14,Cc1ccc(-n2c(C)cc(/C=C3\NC(=O)NC3=O)c2C)c(C)c1,"inconclusive: 0.891 µM [inhibitor, partial curve, poor fit]"
15,O=C(COC(=O)CNC(=O)c1sc2ccccc2c1Cl)NC1CCS(=O)(=O)C1 (centres undefined),inactive
16,Cc1ccc(S(=O)(=O)c2nnn3c2nc(NCc2ccccc2Cl)c2sccc23)cc1,inactive
17,Cc1cc(NC(=O)CSc2nc(C)c(C)c(=O)[nH]2)no1,inactive
18,CCOC(=O)c1ccc(NC(=O)c2nn(C)c3c2COc2ccccc2-3)cc1,"inconclusive: 15.8 µM [inhibitor, single point]"
19,COc1cccc(C2CC(c3cccs3)=NN2C(=O)CSC2=NCCS2)c1OC (centres undefined),"inconclusive: 20 µM [inhibitor, single point]"
20,CCCCCNC(=O)c1c[nH]c2ccc(S(=O)(=O)N3CCC4(CC3)OCCO4)cc2c1=O,"inconclusive: 3.55 µM [inhibitor, partial curve, poor fit]"
21,Cc1ccc(O)c(C(=O)c2cc(C(=O)NCCc3ccccc3)c(=O)n(CCc3ccccc3)c2)c1,"inconclusive: 18.4 µM [inhibitor, single point]"
22,CCCCCN(C(=O)NC(=O)Nc1nncs1)S(C)(=O)=O,inactive
23,COc1cc(SC)ccc1C(=O)N1CC(C)OC(C)C1 (centres undefined),inactive

row,SMILES,Potency
1,COc1ccc(CN(C)C(=O)Cc2ccsc2)c(OC)c1OC,"inconclusive: 11.2 µM [inhibitor, single point]"
2,CC(Oc1ccccc1)C(=O)N(CCC1=CCCCC1)c1c(N)n(Cc2ccccc2)c(=O)[nH]c1=O (centres undefined),"inconclusive: 20 µM [inhibitor, single point]"
3,CCCCNC(=O)C(CC)Sc1nc2ccccc2c(=O)n1CCc1ccc(OC)c(OC)c1 (centres undefined),"inconclusive: 5.62 µM [inhibitor, single point]"
4,Cc1nccn1CCOc1ccc(Cl)cc1,"inconclusive: 35.5 µM [activator, single point]"
5,Cc1ccc(C(C)C)cc1OCC(=O)NC1CCCCCCC1,"inconclusive: 25.1 µM [activator, partial curve, poor fit]"
6,COc1cccc(CN(Cc2ccco2)S(=O)(=O)c2ccc(S(=O)(=O)NCc3ccccc3)cc2)c1OC,"inconclusive: 32.6 µM [inhibitor, single point]"
7,O=C(c1ccc2c(c1)N(Cc1ccc(F)cc1)CCS2)N1CCC2(CC1)OCCO2,"inconclusive: 7.94 µM [inhibitor, partial curve, poor fit]"
8,C/C(=N\Nc1ccc(Cl)c(Cl)c1)c1ccc(-n2ccnc2)cc1,"inconclusive: 14.1 µM [inhibitor, single point]"
9,COc1ccccc1NCC(=O)N/N=C/c1cccnc1,inactive
10,COc1ccc(/C=N/Nc2ncnc3sc4c(c23)CCCC4)cc1OC,"inconclusive: 35.5 µM [inhibitor, single point]"
11,CCCOc1ccc(C(O)CCNC(CC(=O)O)c2ccccc2)cc1 (centres undefined),inactive
12,O=C(COC(=O)c1cccc(Br)c1)NC(=O)NC1CCCC1,"inconclusive: 3.55 µM [inhibitor, single point]"
13,CN(C)/C=C/C(=O)c1ccc(Oc2ccccc2)cc1,"inconclusive: 35.5 µM [inhibitor, single point]"
14,O=C(Nc1ccc(Br)cc1)c1cccc(N2C(=O)C3C4CCC(C4)C3C2=O)c1 (centres undefined),"inconclusive: 20 µM [inhibitor, partial curve, poor fit]"
15,CNS(=O)(=O)c1cccc(C(=O)OCC(=O)/C=C2/N(C)c3ccccc3C2(C)C)c1,"inconclusive: 15.8 µM [inhibitor, partial curve, poor fit]"
16,Cn1c(CCN2CCOCC2)nc2cc(NC(=O)COc3ccccc3)ccc21,inactive
17,c1ccc(OCCn2c(COc3ccccc3)nc3ccccc32)cc1,inactive
18,COCCNC(=S)NNC(=O)CSCc1ccc(Cl)cc1Cl,"inconclusive: 0.562 µM [inhibitor, full curve, poor fit]"
19,N#Cc1ccccc1S(=O)(=O)N1CCC(C(=O)Nc2cccc(C(=O)NC3CC3)c2)CC1,"inconclusive: 4.47 µM [inhibitor, full curve, poor fit]"
20,O=C1OC(Nc2nc(-c3ccc(F)cc3)cs2)c2ccccc21 (centres undefined),inactive
21,O=C(c1ccc2c(c1)N(Cc1cccc(Cl)c1)C(=O)c1ccccc1S2)N1CCOCC1,"inconclusive: 35.5 µM [inhibitor, single point]"
22,Nc1sc(-c2ccccc2)cc1-c1n[nH]c(=S)n1C1CCCCC1,"inconclusive: 3.55 µM [inhibitor, partial curve, poor fit]"
23,Fc1ccc(-c2noc(-c3ccc4c(c3)CCO4)n2)cc1,active: 10 µM
